Source: the supplement of paper PMC7661543
± gives the standard deviation of the averaged measurements. Differences between knockout arms are mostly noise.

Test system: BT-20
Test: relative cell number vs DMSO control (72 h) (% of DMSO); higher = less growth inhibition (more cells)
Description: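 QMAP-Seq: a pool of 5 breast cancer cell lines (ZR-75-1, SKBR3, HCC-38, MDA-MB-231, BT-20), each carrying 12 doxycycline-inducible Cas9 sgRNA perturbations (11 knockouts plus non-targeting sgNT), was treated with compounds for 72 h at four 10-fold doses (10 nM-10 uM or 1 nM-1 uM range). Barcodes were amplified and sequenced, and cell number was interpolated from 293T spike-in standard curves. The result is expressed as % of the median of DMSO wells. Two biological replicates.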

Structure (SMILES): N[C@@H](CC(=O)N1CCn2c(nnc2C(F)(F)F)C1)Cc1cc(F)c(F)cc1F [Sitagliptin]
- relative cell number (sgRNA knockout: sgATF3, 10 nM): 110 ± 14
- relative cell number (sgRNA knockout: sgATF3, 100 nM): 103 ± 5.1
- relative cell number (sgRNA knockout: sgATF3, 1000 nM): 96.2 ± 5.1
- relative cell number (sgRNA knockout: sgATF3, 10000 nM): 101 ± 5
- relative cell number (sgRNA knockout: sgATF4, 10 nM): 92.8 ± 34
- relative cell number (sgRNA knockout: sgATF4, 100 nM): 113 ± 11
- relative cell number (sgRNA knockout: sgATF4, 1000 nM): 109.3 ± 0.64
- relative cell number (sgRNA knockout: sgATF4, 10000 nM): 108 ± 6
- relative cell number (sgRNA knockout: sgATF6, 10 nM): 117 ± 35
- relative cell number (sgRNA knockout: sgATF6, 100 nM): 127 ± 3
- relative cell number (sgRNA knockout: sgATF6, 1000 nM): 101 ± 19
- relative cell number (sgRNA knockout: sgATF6, 10000 nM): 105 ± 8.1
- relative cell number (sgRNA knockout: sgATG7, 10 nM): 118 ± 29
- relative cell number (sgRNA knockout: sgATG7, 100 nM): 99.4 ± 9.7
- relative cell number (sgRNA knockout: sgATG7, 1000 nM): 105 ± 4.1
- relative cell number (sgRNA knockout: sgATG7, 10000 nM): 82.9 ± 23
- relative cell number (sgRNA knockout: sgERN1, 10 nM): 107 ± 44
- relative cell number (sgRNA knockout: sgERN1, 100 nM): 94.9 ± 17
- relative cell number (sgRNA knockout: sgERN1, 1000 nM): 101 ± 5.2
- relative cell number (sgRNA knockout: sgERN1, 10000 nM): 101 ± 12
- relative cell number (sgRNA knockout: sgHSF1, 10 nM): 112 ± 39
- relative cell number (sgRNA knockout: sgHSF1, 100 nM): 105.4 ± 0.52
- relative cell number (sgRNA knockout: sgHSF1, 1000 nM): 108 ± 6.5
- relative cell number (sgRNA knockout: sgHSF1, 10000 nM): 99 ± 19
- relative cell number (sgRNA knockout: sgHSF2, 10 nM): 104 ± 19
- relative cell number (sgRNA knockout: sgHSF2, 100 nM): 115 ± 3.1
- relative cell number (sgRNA knockout: sgHSF2, 1000 nM): 133 ± 23
- relative cell number (sgRNA knockout: sgHSF2, 10000 nM): 94.9 ± 9.1
- relative cell number (sgRNA knockout: sgKEAP1, 10 nM): 107 ± 39
- relative cell number (sgRNA knockout: sgKEAP1, 100 nM): 93.5 ± 9.4
- relative cell number (sgRNA knockout: sgKEAP1, 1000 nM): 102.7 ± 0.71
- relative cell number (sgRNA knockout: sgKEAP1, 10000 nM): 101 ± 9.8
- relative cell number (sgRNA knockout: sgNFE2L2, 10 nM): 114 ± 35
- relative cell number (sgRNA knockout: sgNFE2L2, 100 nM): 113 ± 26
- relative cell number (sgRNA knockout: sgNFE2L2, 1000 nM): 110 ± 7.8
- relative cell number (sgRNA knockout: sgNFE2L2, 10000 nM): 92.3 ± 9.6
- relative cell number (sgRNA knockout: sgSLC35F2, 10 nM): 117 ± 13
- relative cell number (sgRNA knockout: sgSLC35F2, 100 nM): 97.7 ± 13
- relative cell number (sgRNA knockout: sgSLC35F2, 1000 nM): 112 ± 18
- relative cell number (sgRNA knockout: sgSLC35F2, 10000 nM): 100 ± 9.5
- relative cell number (sgRNA knockout: sgXBP1, 10 nM): 110 ± 41
- relative cell number (sgRNA knockout: sgXBP1, 100 nM): 105 ± 13
- relative cell number (sgRNA knockout: sgXBP1, 1000 nM): 113 ± 1.2
- relative cell number (sgRNA knockout: sgXBP1, 10000 nM): 95.4 ± 2.4
